# Taken from: PubChem BioAssay AID1159579 (Peter MacCallum Cancer Centre, 2015)
# Test: 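Follow-up screen seeking modulators of motility in lymphatic endothelial cells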 (follow-up of hits)
# Cells: human dermal lymphatic endothelial cells
# Reagents: single siRNA against human genes, 25 nM
# Read-out: 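Scratch wound imaging measuring area filled by moving cells plus nuclei number, averaged over two wells and scaled to mock-transfected controls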
# Reading the numbers: migration relative to mock: higher = more migration into the scratch; mean nuclei count: higher = more cells remaining
# Call rule: 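Called active when the migration ratio is 0.6 or lower (impaired) or 1.3 or higher (accelerated), but inactive whenever the mean nuclei count falls under 3300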
# Meaning of the calls: active = migration changed (impaired or accelerated); inactive = no migration change, or too few cells
# This is a random part of about 2,000 reagents tested. Over the whole deposit, 549 (27%) were called active. 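Some migration ratios are negative; siRNAs with too few cells are inactive whatever their migration ratio.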 Unmarked entries are inactive. Reagents against one gene are numbered here. No sequences are given here. Not given: the time to read-out.
gene,reagent no.,migration relative to mock,migration and cell number class,mean nuclei count
ATL3 (atlastin GTPase 3),1,1.02,no change in migration or cell number,6278
ATL3 (atlastin GTPase 3),2,0.4 (active),migration reduced,5444
ATL3 (atlastin GTPase 3),3,0.88,no change in migration or cell number,5607
ATL3 (atlastin GTPase 3),4,0.88,no change in migration or cell number,4634
SLITRK1 (SLIT and NTRK like family member 1),1,0.94,no change in migration or cell number,4654
SLITRK1 (SLIT and NTRK like family member 1),2,0.74,no change in migration or cell number,5875
SLITRK1 (SLIT and NTRK like family member 1),3,1,no change in migration or cell number,6234
SLITRK1 (SLIT and NTRK like family member 1),4,0.12 (active),migration reduced,4002
CSK (C-terminal Src kinase),1,0.78,no change in migration or cell number,6154
CSK (C-terminal Src kinase),2,1.1,no change in migration or cell number,5184
CSK (C-terminal Src kinase),3,0.92,no change in migration or cell number,6300
CSK (C-terminal Src kinase),4,0.14 (active),migration reduced,5114
NXF1 (nuclear RNA export factor 1),1,0.9,no change in migration or cell number,7570
NXF1 (nuclear RNA export factor 1),2,0.52 (active),migration reduced,5506
NXF1 (nuclear RNA export factor 1),3,0.56 (active),migration reduced,6136
NXF1 (nuclear RNA export factor 1),4,0.66,no change in migration or cell number,3834
CRIPT (CXXC repeat containing interactor of PDZ3 domain),1,1,no change in migration or cell number,5776
CRIPT (CXXC repeat containing interactor of PDZ3 domain),2,0.61,no change in migration or cell number,5584
CRIPT (CXXC repeat containing interactor of PDZ3 domain),3,0.96,no change in migration or cell number,5566
CRIPT (CXXC repeat containing interactor of PDZ3 domain),4,0.94,no change in migration or cell number,5674
KIR2DL4,1,0.8,no change in migration or cell number,3944
KIR2DL4,2,0.55 (active),migration reduced,5024
KIR2DL4,3,0.76,no change in migration or cell number,5734
KIR2DL4,4,1.02,no change in migration or cell number,4998
SMPX (small muscle protein X-linked),1,1.12,no change in migration or cell number,5090
SMPX (small muscle protein X-linked),2,0.96,no change in migration or cell number,6266
SMPX (small muscle protein X-linked),3,0.92,no change in migration or cell number,5288
SMPX (small muscle protein X-linked),4,0.86,no change in migration or cell number,5215
